PMC12356834
These are yes or no findings as the source states them, for the method shown. Binding seen in cells or lysates may run through a third protein. Some entries that bind do so weakly or less than the wild type. Where a sequence is shown, tags or fusion partners need not be part of it.

Amino acid sequences for entries named in this document (tags omitted). Residues count along the entry.
UniProt P11021, residues 19-654: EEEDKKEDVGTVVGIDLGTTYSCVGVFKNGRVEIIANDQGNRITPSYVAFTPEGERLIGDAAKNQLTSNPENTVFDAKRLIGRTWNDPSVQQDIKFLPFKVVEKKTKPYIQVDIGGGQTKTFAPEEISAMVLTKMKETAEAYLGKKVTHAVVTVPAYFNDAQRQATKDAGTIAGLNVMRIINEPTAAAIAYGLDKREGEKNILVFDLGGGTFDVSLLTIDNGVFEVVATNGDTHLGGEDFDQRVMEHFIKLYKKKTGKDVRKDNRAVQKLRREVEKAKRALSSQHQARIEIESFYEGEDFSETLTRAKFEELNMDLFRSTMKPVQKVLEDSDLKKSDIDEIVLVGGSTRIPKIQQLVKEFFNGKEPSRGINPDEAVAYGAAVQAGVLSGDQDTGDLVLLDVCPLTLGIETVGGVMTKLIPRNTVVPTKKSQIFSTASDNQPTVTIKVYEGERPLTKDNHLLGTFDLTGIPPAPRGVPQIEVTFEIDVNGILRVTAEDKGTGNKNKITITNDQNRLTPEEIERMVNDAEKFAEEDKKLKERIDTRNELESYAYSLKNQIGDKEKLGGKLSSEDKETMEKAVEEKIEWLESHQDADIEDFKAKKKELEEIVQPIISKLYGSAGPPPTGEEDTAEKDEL

Target: T1, FLAG-tagged UBOX5 (human) (UniProt O94941)
T1 sequence: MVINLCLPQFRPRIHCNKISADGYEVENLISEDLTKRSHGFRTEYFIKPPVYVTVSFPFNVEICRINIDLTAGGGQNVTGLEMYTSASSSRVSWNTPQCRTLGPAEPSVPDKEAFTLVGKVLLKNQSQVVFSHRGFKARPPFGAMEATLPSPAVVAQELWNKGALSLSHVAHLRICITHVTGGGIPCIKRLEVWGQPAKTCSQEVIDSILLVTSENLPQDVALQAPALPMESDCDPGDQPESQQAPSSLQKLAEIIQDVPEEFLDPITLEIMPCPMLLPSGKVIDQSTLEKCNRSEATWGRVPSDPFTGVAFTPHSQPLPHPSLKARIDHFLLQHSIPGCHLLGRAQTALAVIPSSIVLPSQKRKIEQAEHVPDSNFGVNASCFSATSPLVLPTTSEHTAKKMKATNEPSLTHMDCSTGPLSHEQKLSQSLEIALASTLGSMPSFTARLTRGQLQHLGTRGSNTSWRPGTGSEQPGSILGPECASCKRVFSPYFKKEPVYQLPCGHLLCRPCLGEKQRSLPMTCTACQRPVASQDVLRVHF
Experiment: co-IP; HEK293 cells co-transfected with FLAG-tagged UBOX5-UBD or FLAG-tagged UBOX5 and HA-tagged ubiquitin; thapsigargin, then MG132 before harvest; lysates immunoprecipitated with anti-FLAG M2 and Protein G beads; immunoblot for BIP; mock immunoprecipitation with mouse immunoglobulin as control

binding: binds
Substance: Binding Immunoglobulin Protein (BIP) (from UniProt P11021 19-654)
